Publication PMC10023680
No constants are given. Whether binding was seen depends on the method and setting. Some entries that bind do so weakly or less than the wild type.

The chains behind the UniProt entries cited, without tags or fusion partners. Residues count along the entry.
UniProt Q92556, residues 1-113: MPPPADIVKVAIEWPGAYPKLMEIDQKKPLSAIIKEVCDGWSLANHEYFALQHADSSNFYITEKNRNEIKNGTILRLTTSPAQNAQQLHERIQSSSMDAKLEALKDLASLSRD
UniProt P60953, residues 1-178: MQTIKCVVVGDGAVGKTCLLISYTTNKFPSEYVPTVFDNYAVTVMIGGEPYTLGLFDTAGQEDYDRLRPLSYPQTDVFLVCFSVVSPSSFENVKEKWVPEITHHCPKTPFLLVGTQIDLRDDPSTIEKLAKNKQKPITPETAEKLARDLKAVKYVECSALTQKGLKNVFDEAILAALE

Target: GST-tagged ELMO1-RBD (residues 1-113), wild-type (human) (UniProt Q92556)
Assay: SPR; Biacore T200; GST-ELMO1-RBD (1-113, wild-type or mutants) captured on CM5 chip with GST Capture Kit; GTPγS-bound RhoG injected at 2.2-35.5 μM (Rac1 and Cdc42 measured similarly); 10 mM HEPES pH 7.5, 150 mM NaCl, 1 mM MgCl2, 0.005% P-20; steady-state affinity analysis; both purified

binding: binds weakly
Substance: Cdc42 (residues 1-178) (from UniProt P60953 1-178) (domain or fragment)
